In the supplement of paper PMC12889115:
Some of the results follow. Values are raw readings; no control value is given beside them.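 Primary screen: polymyxin B was added at a level permeabilizing Salmonella outer membranes while sparing inner membranes. DMSO wells, both with and without polymyxin B, established maximum growth. Plate-to-plate variation meant each plate was ranked on its own, and the lowest-OD600 compounds were selected as hits.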

System: Salmonella enterica serovar Typhimurium SL1344
Experiment: bacterial growth OD600 after 18 h with compound and polymyxin B; higher = more bacterial growth (less inhibition)
Conditions: 50 µM, Mueller-Hinton broth

Row | Structure (SMILES) | bacterial growth OD600 (polymyxin B 1 µg/mL) | bacterial growth OD600 (polymyxin B 0.75 µg/mL)
1 | O=C(CC(c1ccccc1)c1ccc(Cl)cc1)N1CCOCC1 (stereo not given) | 0.708 | –
2 | O=C(Nc1ccc(Oc2ccccc2F)cc1)C1CCN(Cc2nccs2)CC1 | 0.919 | –
3 | COc1cc(=O)n2c(c1C(=O)NC(C)c1ccco1)CCN(Cc1cc3ccccc3s1)CC2 (stereo not given) | – | 0.775
4 | COc1ccc(C(=O)NC2CC2)cc1OC1CCN(Cc2ccc(NC(C)=O)cc2)CC1 | 1.06 | –
5 | Cc1ccccc1Oc1ncccc1CNC(=O)C1CCCN(C(N)=O)C1 (stereo not given) | – | 0.98
6 | CC(=O)c1ccc(S(=O)(=O)N2CCC(CO)(Cc3cccc(C(F)(F)F)c3)CC2)cc1 | 0.807 | –
7 | COc1ccc(OCc2cc(C(=O)NC(CO)C(C)C)no2)c2ccccc12 (stereo not given) | 0.004 | –
8 | COc1ccc(NC2CCCN(C(=O)Cc3sc(C)nc3C)C2)cc1OC (stereo not given) | 0.927 | –
9 | CCOC(=O)CNC(=O)N(C)CC1CCCN(CCc2ccccc2C)C1 (stereo not given) | 1.06 | –
10 | CC1(C)CC2CC(C)(CN2C(=O)CCC2(Cc3ccc4ccccc4c3)CCC(=O)N2)C1 (stereo not given) | – | 0.081
11 | O=C(NCc1ccccc1Cl)c1cc(CN2CCOCC2)on1 | 1.06 | –
12 | COc1ccccc1Oc1ncccc1CNC(=O)C1CCCCO1 (stereo not given) | – | 0.859
13 | CN(C)CCN1C(=O)NC(CCc2ccccc2)(C2CCN(C(=O)Cc3ccsc3)CC2)C1=O (stereo not given) | – | 0.845
14 | CCOC(=O)C1(Cc2ccccc2F)CCCN(C(=O)COC)C1 (stereo not given) | 0.911 | –
15 | COc1ccc(CNC(=O)CCC2CCCN(Cc3cccc4cccnc34)C2)c(OC)c1 (stereo not given) | 1.17 | –
16 | Cc1nc2ccccc2n1Cc1cc(C(=O)NCCN2CCCCC2)no1 | – | 0.839
17 | COCCn1cc(C(=O)NCC2(c3ccccc3)CCCC2)c(=O)c(C(=O)N2CCC(C)CC2)c1 | – | 0.89
18 | CC(C)CCN(C)C(=O)C1CCN(C2CCN(c3nc4ccccc4o3)CC2)CC1 | – | 0.647
19 | COc1ccc(NC(=O)CCC2CCCN(C(=O)c3cc(C)nn3C)C2)cc1Cl (stereo not given) | 0.89 | –
20 | O=C(CCC1CCN(C(=O)[C@@H]2C[C@@H]3C=C[C@H]2C3)CC1)Nc1ccc(F)c(Cl)c1 | 0.891 | –
21 | OCCC1CN(Cc2ccc(F)c(F)c2)CCN1Cc1ccccc1F (stereo not given) | 0.952 | –
22 | COCCNC(=O)c1cccc(OC2CCN(Cc3ccc(Cl)s3)CC2)c1 | – | 0.558
23 | CCOC(=O)N1CCC(NCc2cccc(OCC(O)CN3CCCCCC3)c2)CC1 (stereo not given) | 0.863 | –
24 | CCOC(=O)C1(CCCc2ccccc2)CCCN(C(=O)C2CCC2)C1 (stereo not given) | 0.377 | –
25 | COCc1ccc(C(=O)NCc2c(C)ncc3c2CCN(C(=O)Cc2c(C)noc2C)C3)o1 | – | 0.789
26 | CN(C)S(=O)(=O)N1CCC(Oc2cccc(C(=O)NCc3ccsc3)c2)CC1 | 0.898 | –
27 | O=C1CCC(CCC(=O)N2CCCC2)(Cc2ccc(Cl)cc2)N1 (stereo not given) | – | 0.835
28 | CCOC(=O)C1(CCCc2ccccc2)CCCN(C(=O)Cn2cccn2)C1 (stereo not given) | 1.08 | –
29 | CCOC(=O)C1(Cc2ccccc2)CCN(Cc2c(C)nn(C)c2Cl)CC1 | – | 0.926
30 | Cc1c(CN2CCC(C3CCN(Cc4ccc(Cl)cc4)C3)CC2)cnn1C (stereo not given) | 0.974 | –

In the list so far, these contain a thiophene ring, fused or not:
Row | Structure (SMILES) | bacterial growth OD600 (polymyxin B 1 µg/mL) | bacterial growth OD600 (polymyxin B 0.75 µg/mL)
3 | COc1cc(=O)n2c(c1C(=O)NC(C)c1ccco1)CCN(Cc1cc3ccccc3s1)CC2 (stereo not given) | – | 0.775
13 | CN(C)CCN1C(=O)NC(CCc2ccccc2)(C2CCN(C(=O)Cc3ccsc3)CC2)C1=O (stereo not given) | – | 0.845
22 | COCCNC(=O)c1cccc(OC2CCN(Cc3ccc(Cl)s3)CC2)c1 | – | 0.558
26 | CN(C)S(=O)(=O)N1CCC(Oc2cccc(C(=O)NCc3ccsc3)c2)CC1 | 0.898 | –
